Source: paper PMC3461030
Residue numbers refer to the chain shown, from its start. Results are given in words; binding and its absence hold for the method and conditions named. Binding seen in cells or lysates may run through a third protein. Some results given as binding are weak or reduced against the parent protein; the word gives no strength. Tags and fused reporters may be left off the sequences shown.

Protein sequences, listed by entry. Tags and fused reporters are not part of them.
UniProt Q96GD4: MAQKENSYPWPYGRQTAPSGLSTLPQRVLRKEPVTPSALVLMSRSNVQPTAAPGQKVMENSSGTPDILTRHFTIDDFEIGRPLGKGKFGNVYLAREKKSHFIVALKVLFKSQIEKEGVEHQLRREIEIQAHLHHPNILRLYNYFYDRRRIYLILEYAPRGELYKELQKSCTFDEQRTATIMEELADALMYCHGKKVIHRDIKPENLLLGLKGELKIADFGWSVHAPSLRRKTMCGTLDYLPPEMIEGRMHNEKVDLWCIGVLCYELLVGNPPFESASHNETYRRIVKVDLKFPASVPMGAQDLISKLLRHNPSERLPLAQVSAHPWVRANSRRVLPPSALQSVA

Columns and labels:
Assay in all cases: co-IP; monoclonal anti-FLAG antibody on metaphase-enriched HEK cell lysates co-transfected with Aurora B kinase and FLAG-Mst1 plasmids; Western blot for Aurora B kinase
[1] = target: T1, FLAG-Mst1 K59R ΔC (amino acid 1–330, lacking NES, and kinase activity) (UniProt Q13043)
T1 sequence: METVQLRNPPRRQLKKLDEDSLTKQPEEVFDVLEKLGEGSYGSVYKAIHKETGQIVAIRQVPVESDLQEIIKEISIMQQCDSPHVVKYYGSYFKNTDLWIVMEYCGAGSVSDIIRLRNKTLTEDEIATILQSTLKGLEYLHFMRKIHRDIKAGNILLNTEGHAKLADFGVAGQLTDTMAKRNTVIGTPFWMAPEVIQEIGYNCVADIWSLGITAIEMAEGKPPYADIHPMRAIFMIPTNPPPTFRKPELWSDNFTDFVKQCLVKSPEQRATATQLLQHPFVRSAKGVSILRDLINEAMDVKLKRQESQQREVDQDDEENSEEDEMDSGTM

[2] = target: T2, FLAG-Mst1 WT (UniProt Q13043)
T2 sequence: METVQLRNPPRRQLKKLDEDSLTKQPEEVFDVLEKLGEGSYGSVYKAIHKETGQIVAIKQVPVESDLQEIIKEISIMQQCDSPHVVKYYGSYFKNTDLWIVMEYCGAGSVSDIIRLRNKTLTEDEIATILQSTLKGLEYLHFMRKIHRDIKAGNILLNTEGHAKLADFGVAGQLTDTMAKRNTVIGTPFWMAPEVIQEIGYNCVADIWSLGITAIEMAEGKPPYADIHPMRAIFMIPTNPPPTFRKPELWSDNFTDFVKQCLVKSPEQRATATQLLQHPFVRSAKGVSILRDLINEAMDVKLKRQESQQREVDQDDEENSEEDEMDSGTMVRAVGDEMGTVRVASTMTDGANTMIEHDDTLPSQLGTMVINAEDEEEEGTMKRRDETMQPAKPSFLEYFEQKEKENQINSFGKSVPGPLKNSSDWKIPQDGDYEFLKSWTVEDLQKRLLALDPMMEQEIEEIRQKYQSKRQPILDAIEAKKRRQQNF

[3] = target: T3, FLAG-Mst1 K59R (UniProt Q13043)
T3 sequence: T2 sequence with K59R

“Aurora B kinase-GFP (from UniProt Q96GD4 1-344)” was tested, and the binding [1] was “binds weakly”, the binding [2] was “binds” and the binding [3] was “binds”.
